Laboratory results: PMC10320321
Results are given in words; binding and its absence hold for the method and conditions named. In cells and extracts the contact can be indirect. Some entries that bind do so weakly or less than the wild type.

Amino acid sequences for entries named in this document (tags omitted).
UniProt P67809: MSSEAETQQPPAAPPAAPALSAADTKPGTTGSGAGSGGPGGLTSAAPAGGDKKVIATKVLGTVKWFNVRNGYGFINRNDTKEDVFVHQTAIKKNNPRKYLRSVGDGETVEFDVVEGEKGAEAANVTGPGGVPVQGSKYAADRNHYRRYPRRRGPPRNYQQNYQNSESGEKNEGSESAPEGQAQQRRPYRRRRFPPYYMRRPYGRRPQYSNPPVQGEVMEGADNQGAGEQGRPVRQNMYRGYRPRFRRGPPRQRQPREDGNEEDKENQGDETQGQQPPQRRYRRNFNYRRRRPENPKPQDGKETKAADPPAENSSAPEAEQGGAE

Target: T1, Aurora kinase A (human (endogenous in MDA-MB-231)) (UniProt O14965)
T1 sequence: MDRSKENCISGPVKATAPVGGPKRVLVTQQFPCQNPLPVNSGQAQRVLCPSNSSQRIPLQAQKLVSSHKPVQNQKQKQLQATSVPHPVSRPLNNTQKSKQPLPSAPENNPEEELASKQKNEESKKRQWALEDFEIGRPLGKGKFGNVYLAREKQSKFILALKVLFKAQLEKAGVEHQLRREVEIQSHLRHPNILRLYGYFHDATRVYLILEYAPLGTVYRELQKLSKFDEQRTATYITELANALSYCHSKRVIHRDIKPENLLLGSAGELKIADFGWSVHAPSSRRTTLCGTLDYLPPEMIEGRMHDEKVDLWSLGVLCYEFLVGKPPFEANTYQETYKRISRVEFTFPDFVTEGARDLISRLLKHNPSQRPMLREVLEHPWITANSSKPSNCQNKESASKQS
Assay: co-IP; endogenous proteins in MDA-MB-231 cell lysate (500-1000 ug protein), overnight at 4 °C with antibodies combined with Protein A-G agarose, detected by Western blot

| Substance | binding |
| --- | --- |
| splicing factor YBX1 (from UniProt P67809 1-324) | binds |
| splicing factor hnRNPK (from UniProt P61978 1-463) | binds |
